Values quoted from earlier work as cited in patent US7973043B2, “Combination therapy for depression, prevention of suicide, and various medical and psychiatric conditions” (priority 2002, dated 2011).
At least one compound was matched to its structure with a doubt left.

Conditions: case report, cited from earlier work

In the case of `Cc1cc2c(s1)Nc1ccccc1N=C2N1CCN(C)CC1` [olanzapine], the “response of treatment-resistant non-psychotic depression” value (5 mg olanzapine added to venlafaxine (Pitchot 2001)) is listed as “marked improvement with a complete remission” and the “duration of maintained full remission” value (olanzapine taken again with venlafaxine) is listed as 15 months.
